Most values lie at the floor of the assay. Slopes are relative: functional sequences can read slightly below zero.

This data set has as its system Saccharomyces cerevisiae PS128 hsf1 delta, HSF1(1-493) fusion. The data set can be described thus: growth estimate (transactivation domain function in HSF1 fusion, heat-shock survival) (a.u. (slope of normalised read count over time)); higher = stronger growth at 37°C, i.e. more transactivation activity. Conditions: library: random library. The procedure: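 Random 60-nt DNA library encoding peptides of up to 20 aa, fused to the C-terminus of yeast HSF1 residues 1-493 (C-terminal TAD deleted) and expressed from the native HSF1 promoter on a CEN plasmid in hsf1-deleted S. cerevisiae PS128. Cells were selected at 37°C on -trp 5-FOA plates for 0, 2, 4, 6 and 8 days and amplicons were sequenced. Growth estimate is the slope of a robust linear fit of total-sum-normalised read counts (normalised to the first time point) over time, using at least 2 replicates. Sequences are classed functional (TAD activity) above a threshold of -0.13, set from stop-codon control sequences.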
For the substance PPRVKRGGYICPHAAYR, the growth estimate was below -0.25. In the case of LHRIPMVMR it was below -0.25; in that of SVLPGGFAY, below -0.25; in that of LTAVIGLT, below -0.25.

On to RSKGIESHEVLAAGTEEGLL, for which the growth estimate was below -0.25. Turning to GIELPVQKYGRVVRASYNAT, the growth estimate was below -0.25. In the case of LTAITRSSGNHSVCTTASEV it was below -0.25; in that of RTMQAR, below -0.25; in that of GPALLSIASRKGFFCVVQVV, below -0.25. The figure for AKGTPIDWVVPSCDHEPPEN is below -0.25; for TADE it is below -0.25. Take ASQFTIPRRTKI: the growth estimate was -0.23.

As for SRRLPRESADVPVGIDGR, the growth estimate was below -0.25. In the case of AEWCGRRD it was below -0.25; in that of RCSCGTRWSISLTSDPPQYL, below -0.25.

As to KISVSCVYVGTKVGCLVSFQ, the growth estimate was below -0.25.

In the case of WGKVALGSYKQSPAFMLGGN, the growth estimate is below -0.25. Turning to VTVPHKRVQESV, the growth estimate is below -0.25. The figure for RGKPKARGRRISTINKQLSE is 0.0112; for RVSTPT it is below -0.25; for TPRYNQKG it is below -0.25. In the case of IRTHSDYEALETSSGQSTAN it was below -0.25. In the case of NRRCLCQPK it was below -0.25; in that of IFFAAERAMS, below -0.25. On to GSNTWSLENVGLRILDRYYY, for which the growth estimate was below -0.25. Take IIFQRCVEIHRIGDEKDFR: the growth estimate was below -0.25. In the case of PCNRALAWPRYIIFMWRGGP it was below -0.25; in that of LFGIRREGKCSSGMAPVLCH, below -0.25; in that of LRVAAYL, below -0.25. For QLSTFWR, the growth estimate is below -0.25.

On to LQPAR, for which the growth estimate was below -0.25. In the case of WVGSV it was below -0.25; in that of REGSYTV, below -0.25. With IIKVLFLVKCGEYGNTCRTP, the growth estimate was -0.243. With GEFSTGPMYGVRKEGGSVGS, the growth estimate was below -0.25. In the case of LYTTMGRHETELP it was below -0.25; in that of LRVFTASWRVSAKSSIIQGA, below -0.25; in that of YRVTR, below -0.25. The figure for PWNDYAVRQRDHWSAVGVAF is below -0.25; for IVSIALQWKHW it is below -0.25; for VIVSRLTQMG it is below -0.25. The figure for VLQRLRFSGYTVGACKLCRD is below -0.25; for CKSP it is below -0.25; for CLFIRRPMLNARGVIAACWA it is -0.243. As to QRSVSFCCEVIENSPGKEDD, the growth estimate was below -0.25. As to KEHLLNGPQGESTLCPP, the growth estimate is below -0.25. In the case of SSDQHLHNPIKTDGPRPLNA it was below -0.25. In the case of HSKRLSPG it was below -0.25; in that of CPAFKGSLDTKGVDIVLMYM, below -0.25.

As to CVIRPSDVLGELQNCSVHLR, the growth estimate is -0.229. The figure for HLLGSNTV is below -0.25; for RVFGLRVKLT it is below -0.25. Consider RDDHLGGYWTNSFYVGCEQY, for which the growth estimate was below -0.25. Regarding RDRSGGLTCRAERNAGLSSC, the growth estimate is below -0.25. In the case of LAGAKKFRF it was -0.243. Regarding GEASLD, the growth estimate is below -0.25. In the case of HWPGDFVTCLRVVPHIDALS it was below -0.25; in that of RVFCSRKAGGIIAARQVAPH, below -0.25. In the case of MYPPRGVSFVYLALGRDSCY it was below -0.25.

Regarding PETFRDGVNLLELDRISKFS, the growth estimate is below -0.25. The figure for PVQIPTRENKLSAFPSESNS is below -0.25. In the case of HTRDPPTTLDSGGSHKTSST it was below -0.25; in that of LCRQLVLLGLMRKHGEYDDE, below -0.25. In the case of TNQSPSAPHTGRQRNAHKSG it was below -0.25; in that of HTALFGGP, -0.13; in that of GRAVPRTASEPGHARAMSV, below -0.25. As to VTSALYVVSMNPPLRQLQR, the growth estimate is below -0.25. In the case of QSTSGLP it was below -0.25; in that of WRLHKRPNPSC, below -0.25; in that of HSDTELTGLECTSDTFSGLT, -0.245.

With SDIPRIGASDCSCSFKLFEW, the growth estimate was -0.0802.

On to YGALAATYLRDDVGSLG, for which the growth estimate was below -0.25.

With MPTLLPTGMNLKSGGSAGIR, the growth estimate was below -0.25. As to PFNLSSSILLHPRVVKVGDV, the growth estimate is below -0.25. Regarding ASNASRSTANEIGSIQRWGC, the growth estimate was below -0.25.

With PLLVYTVV, the growth estimate is below -0.25. The figure for SLLL is below -0.25; for QEVGGPLKWDRADVGATGIR it is below -0.25.

Consider LALGSFDPAVALMDGVALQN, for which the growth estimate was below -0.25. The figure for YETGMDKPRW is below -0.25; for NYILEA it is below -0.25. In the case of TVLWTVGELARVRIFLSGYF, the growth estimate was -0.217. Regarding HLQISTVAWTRSLRRYDTVA, the growth estimate is below -0.25. FDLEHVPVTKMIYGPKEATV: the growth estimate is below -0.25. The figure for SGCTFAGTDKSPKRALRG is below -0.25; for GTTGGLMGRAWDAVWRGCCG it is below -0.25; for IGSNVG it is below -0.25. With LSRFCP, the growth estimate is below -0.25. In the case of PLCDVNRWEEVPNKSVSDPL it was below -0.25; in that of DSAGTSASQLALHGDAISDS, below -0.25. In the case of PGDLLPRGVYWSFVLRIYTP it was 0.151; in that of ALSTGVYLLTTGTMVSRIIV, below -0.25; in that of SLGEKLEVLHVFTWNTLPWT, below -0.25. The figure for IMRL is below -0.25; for AGNPGALEVRKCWGGGIVVP it is below -0.25; for RITGRHVRTSMLEWLDLSA it is below -0.25. On to GVMAEWDKRVHRIM, for which the growth estimate is below -0.25. The figure for LRY is below -0.25; for NGIHVSVEYRAGRASFVSAT it is below -0.25; for DYESRGFSRQ it is below -0.25. In the case of ELSTLLCMRWNLASRSSLSL it was below -0.25. The figure for RLLVSL is below -0.25. Regarding GVWFSVGYIPIDWHCGDWRV, the growth estimate was below -0.25. For MLTDTGDVSDPNRPHVKPQR, the growth estimate is below -0.25. Turning to ILNASRWRLILTVASADFAR, the growth estimate was below -0.25. In the case of RFHVRY it was below -0.25; in that of SDYRVTSACIEPGGNCGLKR, below -0.25. As for RVIGMSEVEVWPDSVLLFLA, the growth estimate is below -0.25. The figure for VSGYSQMAGASSP is below -0.25; for NIKTPDLAHCI it is below -0.25; for CRDRSVGAN it is below -0.25.

FRYI: the growth estimate was below -0.25.

With ALVARASPCSSGYCNMKIVT, the growth estimate was below -0.25. The figure for LYGVVCD is below -0.25.

These data come from the supplement of paper PMC5949888.
